# Measurements reported in PubChem BioAssay AID1259284 (Sanger Institute, 2017).
# Purpose: 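Kinase knock-downs that cut colorectal cancer cell growth alone or with targeted drugs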 (primary screen)
# Cell system: SW48 human colorectal cancer cells
# Reagent: siRNA pool against human genes
# Conditions: anchor drug BYL719 at 1 µM, cetuximab at 5 µg/ml or trametinib at 10 nM, or DMSO vehicle alone
# Measured: 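Cell viability relative to non-targeting pool wells, replicate mean, with robust z-scores and drug synergy scores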
# Direction: robust z-score, no drug: higher = more cells survive knock-down; viability, no drug: higher = more viable cells; synergy with BYL719 and synergy with trametinib and synergy with cetuximab: higher = stronger combined killing with drug
# Call rule: 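Called essential when the robust z-score of viability without drug falls below -3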
# Meaning of the calls: active = essential without drug; inactive = no change without drug
# In all, the deposit lists 794 reagents; below is a random part of them. 16 of all reagents (2%) were called active. 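Calls concern knock-down without drug only; drug synergy was judged apart, with scores above 0.15 taken as synergy.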 No viability above 1 is reported: the scale is capped. Not given: the amount of reagent, the time to read-out.
target,PubChem SID,"robust z-score, no drug","viability, no drug (fraction of control)",synergy with BYL719,synergy with trametinib,synergy with cetuximab,call
WNK4 (WNK lysine deficient protein kinase 4),SID56478961,0.426,1,-0.367,-0.239,-0.165,inactive
PANK3 (pantothenate kinase 3),SID56479122,0.426,1,-0.309,-0.184,-0.036,inactive
CILK1 (ciliogenesis associated kinase 1),SID152149076,0.426,1,-0.164,-0.121,0.042,inactive
DGKB (diacylglycerol kinase beta),SID56479090,-3.16,0.692,-0.25,0.00323,-0.237,active
CSNK1D (casein kinase 1 delta),SID56478658,0.168,0.978,-0.0341,0.0278,-0.0864,inactive
PAPSS2 (3'-phosphoadenosine 5'-phosphosulfate synthase 2),SID152148635,0.426,1,-0.141,-0.106,-0.111,inactive
MAPK3 (mitogen-activated protein kinase 3),SID135620708,0.426,1,-0.0485,0.175,0.0243,inactive
ANKK1 (ankyrin repeat and kinase domain containing 1),SID56478922,-0.68,0.905,-0.0846,0.0625,0.103,inactive
MYLK (myosin light chain kinase),SID152147192,-1.25,0.856,-0.11,0.0452,0.0849,inactive
EGFR (epidermal growth factor receptor),SID135620613,-1.39,0.844,-0.0789,0.028,-0.146,inactive
PI4K2A (phosphatidylinositol 4-kinase type 2 alpha),SID135621249,0.426,1,-0.346,-0.311,-0.165,inactive
MAPK15 (mitogen-activated protein kinase 15),SID152151405,0.426,1,-0.245,-0.105,-0.165,inactive
GRK5 (G protein-coupled receptor kinase 5),SID152146923,-0.363,0.932,-0.0917,-0.00523,0.101,inactive
SMC1A (structural maintenance of chromosomes 1A),SID134311995,0.426,1,-0.0464,0.0151,0.188,inactive
"CKM (creatine kinase, M-type)",SID56479085,0.426,1,-0.367,-0.119,-0.165,inactive
RET (ret proto-oncogene),SID135620630,0.426,1,-0.171,-0.051,-0.165,inactive
NME1 (NME/NM23 nucleoside diphosphate kinase 1),SID56479166,0.426,1,-0.345,-0.194,-0.159,inactive
NRBP1 (nuclear receptor binding protein 1),SID135620974,0.426,1,-0.192,-0.169,-0.154,inactive
PMVK (phosphomevalonate kinase),SID135621255,-0.323,0.936,-0.0665,-0.195,-0.0892,inactive
RBKS (ribokinase),SID56479147,0.426,1,-0.277,-0.381,-0.165,inactive
TSSK1B (testis specific serine kinase 1B),SID56478967,-2.04,0.789,-0.199,-0.0323,-0.0337,inactive
LIMK2 (LIM domain kinase 2),SID152148517,0.426,1,-0.276,-0.0631,-0.165,inactive
ATRX (ATRX chromatin remodeler),SID152156576,0.426,1,-0.134,-0.14,0.0349,inactive
FOXP1 (forkhead box P1),SID135620800,-0.585,0.913,-0.0529,-0.0629,0.00542,inactive
PRPS1L1 (phosphoribosyl pyrophosphate synthetase 1 like 1),SID56479159,0.426,1,-0.0303,0.0509,0.037,inactive
CKS2 (CDC28 protein kinase regulatory subunit 2),SID56479182,0.426,1,-0.206,-0.302,-0.164,inactive
NME7 (NME/NM23 family member 7),SID56479121,0.426,1,-0.367,-0.341,-0.151,inactive
"MET (MET proto-oncogene, receptor tyrosine kinase)",SID56478534,0.426,1,-0.306,-0.143,-0.161,inactive
LATS2 (large tumor suppressor kinase 2),SID152149461,0.426,1,-0.273,-0.119,-0.165,inactive
PINK1 (PTEN induced kinase 1),SID152149500,0.426,1,-0.0175,0.0242,0.0516,inactive
MYLK4 (myosin light chain kinase family member 4),SID152150692,0.426,1,-0.0229,-0.00322,-0.11,inactive
PRKCE (protein kinase C epsilon),SID135620860,-0.506,0.92,0.062,0.0207,-0.0294,inactive
HK2 (hexokinase 2),SID56479103,0.426,1,-0.234,-0.0877,-0.165,inactive
MAP3K9 (mitogen-activated protein kinase kinase kinase 9),SID152152652,-1.49,0.836,-0.0358,0.0337,-0.0535,inactive
PIK3C2G,SID152155956,0.426,1,-0.104,0.235,0.0678,inactive
PRKCA (protein kinase C alpha),SID56478672,0.426,1,-0.155,-0.00284,0.133,inactive
MED24 (mediator complex subunit 24),SID152152726,0.426,1,-0.004,-0.0393,-0.023,inactive
PTEN (phosphatase and tensin homolog),SID152153158,0.426,1,-0.365,-0.261,-0.0735,inactive
ARID1A (AT-rich interaction domain 1A),SID152147093,0.426,1,-0.265,-0.238,-0.165,inactive
ACO1 (aconitase 1),SID134314687,-2.79,0.724,-0.0413,-0.0931,-0.046,inactive
FXR1 (FMR1 autosomal homolog 1),SID152147249,0.426,1,-0.242,-0.174,-0.0694,inactive
EIF2AK3 (eukaryotic translation initiation factor 2 alpha kinase 3),SID152151333,0.426,1,-0.0413,-0.0733,-0.143,inactive
XYLB (xylulokinase),SID152153831,-0.664,0.906,-0.0665,0.0111,-0.0542,inactive
CLK3 (CDC like kinase 3),SID56478875,0.426,1,-0.132,-0.0329,-0.165,inactive
MAP3K14 (mitogen-activated protein kinase kinase kinase 14),SID135620705,0.426,1,-0.251,-0.223,-0.105,inactive
CDADC1 (cytidine and dCMP deaminase domain containing 1),SID56479191,-0.652,0.908,-0.15,-0.0394,-0.0739,inactive
PTK2B (protein tyrosine kinase 2 beta),SID56478543,-2.43,0.755,-0.0831,-0.091,-0.131,inactive
IKBKE (inhibitor of nuclear factor kappa B kinase subunit epsilon),SID56478721,0.426,1,-0.202,-0.162,-0.105,inactive
FGFR4 (fibroblast growth factor receptor 4),SID56478514,0.426,1,-0.275,-0.166,-0.165,inactive
TLK1 (tousled like kinase 1),SID56478782,0.426,1,-0.0235,-0.0104,0.097,inactive

Hits, among the entries above:
target,PubChem SID,"robust z-score, no drug","viability, no drug (fraction of control)",synergy with BYL719,synergy with trametinib,synergy with cetuximab,call
DGKB (diacylglycerol kinase beta),SID56479090,-3.16,0.692,-0.25,0.00323,-0.237,active
